Among the data in PMC3608601 are binding values, retold here.

Amino acid sequences for entries named in this document (tags omitted). Residues count along the entry.
UniProt P29994, residues 1-223: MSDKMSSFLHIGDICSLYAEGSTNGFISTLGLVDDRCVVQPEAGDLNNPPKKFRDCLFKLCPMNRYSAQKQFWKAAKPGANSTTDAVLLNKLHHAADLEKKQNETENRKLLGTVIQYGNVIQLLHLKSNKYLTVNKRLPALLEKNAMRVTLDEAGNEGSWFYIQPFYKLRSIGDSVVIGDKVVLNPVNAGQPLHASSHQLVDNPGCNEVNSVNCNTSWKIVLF

No constants are given. Whether binding was seen depends on the method and setting. Some binding calls cover weakened binding; strength is not graded here.

The experiment has as its target suppressor domain (SD, residues 1-223) of type 1 inositol 1,4,5-trisphosphate receptor, biotinylated (rat) (UniProt P29994). The experiment can be described thus: bead aggregation assay; biotinylated protein (20 pmol) immobilised on streptavidin-coated magnetic beads (10 pmol binding sites), TEM (50 mM Tris-HCl, 1 mM EDTA, pH 8.3), 22°C, 30 min; aggregation of beads counted in DIC images (aggregation ratio); NT-beads also with 10 µM IP3, no significant effect; both purified.

Take “suppressor domain (SD, residues 1-223) of type 1 inositol 1,4,5-trisphosphate receptor, biotinylated (from UniProt P29994 1-223) (domain or fragment)”: the binding entry is listed as “binds weakly”.
